Measurements reported in PubChem BioAssay AID1259308 (NCATS, 2017).
Assay: 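Candidate targets for better recombinant protein yield in mammalian cells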 (primary screen). System: human HEK293 embryonic kidney cells stably expressing firefly luciferase (HEK-CMV-Luc2-Hygro). Reagent: single siRNA against human genes, 0.8 pmol siRNA per well. Time to read-out: 72 h. Detection: 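Luciferase light (ONE-Glo) measured on one replicate plate set and viability (CellTiter-Glo) on the other, scaled to a negative control siRNA, with robust z-scores and luciferase per cell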. Scale: total luciferase, z-score: higher = more reporter protein produced. Hit rule: 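An siRNA counts as active if its total luciferase robust z-score exceeds 3; genes with two or more such siRNAs out of three were retested with fresh siRNAs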. Meaning of the calls: active = raised luciferase; inactive = no rise.
This is a random part of about 59,000 reagents. Over the whole deposit, about 1,510 (2.6%) were called active. 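Calls use total luciferase alone and ignore viability, so some active siRNAs may act by altering cell number.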 A number with no mark means an inactive call. The numbers tell different reagents against one gene apart. Not all columns of the deposit are shown. Reagent sequences are not shown.

How did the screen score CCDC183 #1?
total luciferase, z-score: -1.01

For CCDC183 #2, what was measured?
total luciferase, z-score: 0.839

Which result is listed for CCDC183 #3?
total luciferase, z-score: 0.86

For ZNF692 #1, how do the results read?
total luciferase, z-score: -1.49

For ZNF692 #2, how do the results read?
total luciferase, z-score: -0.79

With ZNF692 #3, how do the results read?
total luciferase, z-score: -0.63

What is on record for INPP5D #1?
total luciferase, z-score: -1.09

Which result is listed for INPP5D #2?
total luciferase, z-score: -0.16

What is on record for INPP5D #3?
total luciferase, z-score: 2.5

What did the screen give for ARIH2 #1?
total luciferase, z-score: 0.653

With ARIH2 #2, what does the deposit list?
total luciferase, z-score: -0.805

With ARIH2 #3, what was measured?
total luciferase, z-score: 0.743

What did the screen give for HSFX2 #1?
total luciferase, z-score: -0.595

With HSFX2 #2, how do the results read?
total luciferase, z-score: -0.129

How did the screen score HSFX2 #3?
total luciferase, z-score: -0.725

How did the screen score ZBTB46 #1?
total luciferase, z-score: 0.968

With ZBTB46 #2, how do the results read?
total luciferase, z-score: 2.79

For ZBTB46 #3, how do the results read?
total luciferase, z-score: 0.568

For RPL37 #1, what was measured?
total luciferase, z-score: -2.78

With RPL37 #2, how do the results read?
total luciferase, z-score: -2.22

With RPL37 #3, what was measured?
total luciferase, z-score: -2.01

For ARL4A #1, what does the deposit list?
total luciferase, z-score: -0.817

With ARL4A #2, what was measured?
total luciferase, z-score: 2.78

How did the screen score ARL4A #3?
total luciferase, z-score: -0.622

Which result is listed for BCO1 #1?
total luciferase, z-score: -0.487

What is on record for BCO1 #2?
total luciferase, z-score: 0.653

For BCO1 #3, what does the deposit list?
total luciferase, z-score: 0.101

Which result is listed for RASSF1 #1?
total luciferase, z-score: 1.28

With RASSF1 #2, how do the results read?
total luciferase, z-score: -1.29

Which result is listed for RASSF1 #3?
total luciferase, z-score: -0.588

What did the screen give for ACTR5 #1?
total luciferase, z-score: -0.393

With ACTR5 #2, what was measured?
total luciferase, z-score: 0.283

What did the screen give for ACTR5 #3?
total luciferase, z-score: 2.59

How did the screen score TMED1 #1?
total luciferase, z-score: -0.809

How did the screen score TMED1 #2?
total luciferase, z-score: 0.296

Which result is listed for TMED1 #3?
total luciferase, z-score: 0.193

For SLC2A9 #1, what does the deposit list?
total luciferase, z-score: 2.56

With SLC2A9 #2, what does the deposit list?
total luciferase, z-score: 0.26

What did the screen give for SLC2A9 #3?
total luciferase, z-score: -1.01

What did the screen give for ZDHHC4 #1?
total luciferase, z-score: 0.341

With ZDHHC4 #2, what does the deposit list?
total luciferase, z-score: -0.396

How did the screen score ZDHHC4 #3?
total luciferase, z-score: -2.11
